The structures appear in SMILES notation. The list is a part of this screen's results and no random one: it is rich in T/C values a quarter to a half above the control, in often repeated tests (any T/C) and in doses without a T/C. Further doses and runs are listed elsewhere. T/C is the treated group as % of the vehicle group. Some entries give survivors of the animals treated and no T/C: the source holds a T/C of zero for them, seemingly a mark for toxic or unscored doses. Some survivor counts are full or nearly so, which does not show that the dose was tolerated: the source hardly ever lists a survival T/C far under the control, and the zero likely stands for such cases as well. Survivors were counted at the toxicity check, usually on the fifth day, unless a day is given; later deaths do not show. Schedule codes are those of the source, read here as Q, the interval in days (D) or hours (H), X, the number of doses. Some entries hold several experiments; the results are listed from low to high. Some molecules as drawn cover several salts, stereoisomers or complexes of the source; a dose is that of the sample tested. Where survival is the endpoint, the PubChem record calls one and a half times the control and up active, and a quarter to a half above the control has no call in these data; cut-offs in other NCI protocols can differ. Some T/C values are followed by the survivors on the day toxicity was checked, most often the fifth; without a count, all were alive then.

Our source for the survivor count and T/C values is PubChem BioAssay AID330 (DTP/NCI, 2004).

The subject of this assay is P388 leukemia ip, CD2F1 mice, survival T/C. Description: NCI In Vivo Anticancer Drug Screen. Data for tumor model P388 Leukemia (intraperitoneal) in CD2F1 (CDF1) mice. The following applies: T/C endpoint: median survival time, higher T/C = longer survival.
[1] abbreviates: dose: 100.0 mg/kg/injection, schedule: Q01DX005 (ip), vehicle: Klucel (hydroxypropylcellulose) (HPC).
The mark [2] stands for this setting: dose: 240.0 mg/kg/injection, schedule: Q01DX005 (ip), vehicle: saline with Tween-80.
Where [3] appears, read: dose: 200.0 mg/kg/injection, schedule: Q01DX009 (ip), vehicle: saline with Tween-80.
Setting [4] is: dose: 400.0 mg/kg/injection, schedule: Q01DX009 (ip), vehicle: saline with Tween-80.
Where [5] appears, read: dose: 100.0 mg/kg/injection, schedule: Q01DX005 (ip), vehicle: saline with Tween-80.
[6] abbreviates: dose: 200.0 mg/kg/injection, schedule: Q01DX005 (ip), vehicle: saline with Tween-80.
Where [7] appears, read: dose: 200.0 mg/kg/injection, schedule: Q01DX005 (ip), vehicle: Klucel (hydroxypropylcellulose) (HPC).
[8] abbreviates: dose: 100.0 mg/kg/injection, schedule: Q04DX003 (ip), vehicle: saline with Tween-80.
The mark [9] stands for this setting: dose: 100.0 mg/kg/injection, schedule: Q01DX009 (ip), vehicle: saline.

On to `Oc1ccc(O)c(/C=N/NC(=S)NC2CC3CC2C2C=CCC32)c1` (centres undefined), for which the survivor count (dose: 400.0 mg/kg/injection, schedule: Q01DX009 (ip), vehicle: olive oil, sesame oil, peanut oil) is 2 of 6. As for `NC(N)=N/N=C/c1ccc(-c2cc3ccc(/C=N/N=C(N)N)cc3s2)cc1`, the T/C by setting is: (dose: 50.0 mg/kg/injection, schedule: Q01DX005 (ip), vehicle: Klucel (hydroxypropylcellulose) (HPC)) 127 % of control; under setting [1], 127 % of control. As for `C#CCOC(=O)Nc1nc2ccc(SC#N)cc2s1`, the survivor count runs as follows: (dose: 100.0 mg/kg/injection, schedule: Q01DX009 (ip), vehicle: Klucel (hydroxypropylcellulose) (HPC)) 6 of 6; (dose: 200.0 mg/kg/injection, schedule: Q01DX009 (ip), vehicle: Klucel (hydroxypropylcellulose) (HPC)) 0 of 6. Take `Cc1oc(C)c(-c2ccccc2)c1C(=O)N1CCN(C)CC1`: under setting [2], the survivor count was 2 of 6. Regarding `CCCCc1nc2cc(CN3CCN(C(c4ccccc4)c4ccccc4)CC3)ccc2n1CC`, the survivor count by setting is: (dose: 50.0 mg/kg/injection, schedule: Q01DX009 (ip), vehicle: saline with Tween-80) 6 of 6; (dose: 100.0 mg/kg/injection, schedule: Q01DX009 (ip), vehicle: saline with Tween-80) 3 of 6; under setting [3], 2 of 6.

Consider `C[P+](C)(C)C`, for which, under setting [2], the survivor count is recorded as 0 of 6. In the case of `FC(F)Oc1ccccc1`, the T/C under setting [3] is 135 % of control.

Turning to `C=C(C)[C@@H]1CC[C@@H]2C(=CC[C@]3(C)C([C@H](C)CC/C=C(/C)C(=O)O)CC[C@@]23C)[C@@]1(C)CCC(=O)O` (some centres undefined), the survivor count is, setting by setting: (dose: 22.5 mg/kg/injection, schedule: Q01DX009 (ip), vehicle: saline + alcohol) 6 of 6; (dose: 45.0 mg/kg/injection, schedule: Q01DX009 (ip), vehicle: saline + alcohol) 6 of 6. With `CCOC(=O)/C=C/c1c[nH]c(=O)[nH]c1=O`, the survivor count (dose: 200.0 mg/kg/injection, schedule: Q01DX009 (ip), vehicle: distilled water + Tween-80) was 6 of 6. Turning to `N#Cc1c(NC(=O)Nc2ccc(F)cc2F)sc(=S)c2c1CCCC2`, the survivor count under setting [3] is recorded as 0 of 6. `C[C@]12CCC(=O)C=C1CC[C@@H]1[C@@H]2CC[C@@]2(C)[C@H]1CCCN2CCO`: the survivor count (dose: 200.0 mg/kg/injection, schedule: Q01DX001 (ip), vehicle: Klucel (hydroxypropylcellulose) (HPC)) was 3 of 5 and the survivor count (dose: 400.0 mg/kg/injection, schedule: Q01DX001 (ip), vehicle: Klucel (hydroxypropylcellulose) (HPC)) is listed as 1 of 5. Consider `CCCCCCCCC(=O)CC`, for which, under setting [4], the survivor count is 2 of 6. In the case of `Cc1cc(NN)nc2n[nH]c(N)c12`, the survivor count by setting is: under setting [5], 1 of 5; under setting [6], 0 of 5. On to `CC(C)(C)[Si](C)(C)CC#C[Si](C)(C)C`, for which the survivor count under setting [6] was 0 of 6. As for `c1ccc(Nc2ccncc2)cc1`, the survivor count runs as follows: (dose: 25.0 mg/kg/injection, schedule: Q01DX009 (ip), vehicle: suspension in saline) 4 of 6; (dose: 50.0 mg/kg/injection, schedule: Q01DX009 (ip), vehicle: suspension in saline) 2 of 6; (dose: 100.0 mg/kg/injection, schedule: Q01DX009 (ip), vehicle: suspension in saline) 1 of 6; (dose: 200.0 mg/kg/injection, schedule: Q01DX009 (ip), vehicle: suspension in saline) 0 of 6. Consider `CCN(CC)CCOc1ccc(C2c3cc(OC)ccc3CC2Cc2cccc(Cl)c2)cc1` (centres undefined), for which the survivor count is 4 of 6 under setting [1] and 2 of 6 under setting [7]. Regarding `N#CC(c1ccccc1)c1cnccn1` (centres undefined), the survivor count under setting [5] was 0 of 6. For `C[N+](C)(C)Cc1ccccc1`, the survivor count is listed as 1 of 6 (dose: 25.0 mg/kg/injection, schedule: Q01DX009 (ip), vehicle: saline); 0 of 6 (dose: 50.0 mg/kg/injection, schedule: Q01DX009 (ip), vehicle: Klucel (hydroxypropylcellulose) (HPC)); 0 of 6 under setting [8]; 0 of 6 (dose: 200.0 mg/kg/injection, schedule: Q04DX003 (ip), vehicle: saline with Tween-80); 0 of 6 (dose: 400.0 mg/kg/injection, schedule: Q04DX003 (ip), vehicle: saline with Tween-80). For `[N-]=[N+]=N/C=C/C(=O)OCCBr`, the survivor count (dose: 120.0 mg/kg/injection, schedule: Q01DX005 (ip), vehicle: saline) is given as 3 of 6 and the survivor count (dose: 240.0 mg/kg/injection, schedule: Q01DX005 (ip), vehicle: saline) is listed as 0 of 6. Regarding `CC(C)n1cc(C(C)(C)C)nc1SSc1nc(C(C)(C)C)cn1C(C)C`, the survivor count under setting [7] is 0 of 6. `CCC[CH2][Sn]([CH2]CCC)([CH2]CCC)[S]C(=S)NCCNC(=S)[S][Sn]([CH2]CCC)([CH2]CCC)[CH2]CCC`: the survivor count is on record as 4 of 7 (dose: 12.5 mg/kg/injection, schedule: Q01DX010 (ip), vehicle: saline); 0 of 7 (dose: 25.0 mg/kg/injection, schedule: Q01DX010 (ip), vehicle: saline); 0 of 7 (dose: 50.0 mg/kg/injection, schedule: Q01DX010 (ip), vehicle: saline).

On to `[CH3][Sn]1([CH3])[O]P(=O)(c2ccccc2)[O]1`, for which the survivor count under setting [9] is recorded as 0 of 6 and the survivor count (dose: 200.0 mg/kg/injection, schedule: Q01DX009 (ip), vehicle: saline) is on record as 0 of 6. On to `Cc1cc(OCC(=O)N/N=C/c2ccc(N(CCCl)CCCl)cc2)c2ccc(Cl)cc2n1`, for which the survivor count under setting [9] is reported as 6 of 6. Regarding `CC(=O)NC(Cc1ccc(N(CCCl)CCCl)cc1)C(=O)NC(CC(C)C)C(=O)O` (centres undefined), the T/C (dose: 12.6 mg/kg/injection, schedule: Q04DX003 (ip), vehicle: saline with Tween-80) is 125 % of control; the T/C (dose: 28.4 mg/kg/injection, schedule: Q04DX003 (ip), vehicle: saline with Tween-80) was 142 % of control; the T/C (dose: 40.0 mg/kg/injection, schedule: Q04DX003 (ip), vehicle: water) was 130 % of control; the T/C (dose: 144.0 mg/kg/injection, schedule: Q04DX003 (ip), vehicle: saline with Tween-80) is 127 % of control. For the compound `O=C(O)CSC(=O)Nc1ccc(N=Nc2ccccc2)cc1`, the survivor count under setting [6] was 3 of 6. `CC(=O)OCc1ccc(O)c(C=O)c1`: the T/C is 125 % of control (dose: 25.0 mg/kg/injection, schedule: Q01DX005 (ip), vehicle: saline with Tween-80) and 128 % of control (dose: 50.0 mg/kg/injection, schedule: Q01DX005 (ip), vehicle: saline with Tween-80). Besides, the survivor count runs as follows: under setting [5], 3 of 6 and 4 of 6; under setting [6], 0 of 6.

On to `COc1cc(NCC(C)(O)CN2CCCCC2)c2ncccc2c1` (centres undefined), for which the survivor count is, setting by setting: (dose: 100.0 mg/kg/injection, schedule: Q01DX005 (ip), vehicle: saline) 0 of 5; (dose: 200.0 mg/kg/injection, schedule: Q01DX005 (ip), vehicle: saline) 0 of 5. Consider `CC1(C(Cl)(Cl)Cl)C=CC(=O)C=C1`, for which the survivor count under setting [4] is reported as 3 of 6. For `C/C(=N\N=C(N)N)c1ccc2c(c1)Cc1ccccc1-2`, the survivor count (dose: 100.0 mg/kg/injection, schedule: Q04DX002 (ip), vehicle: saline with Tween-80) is 1 of 6. As for `CCCCOc1cc(C(=O)O)ccc1[N+](=O)[O-]`, the survivor count under setting [8] is 3 of 6. With `CCCCCCCCCCCC1CCCC(C)N1` (centres undefined), under setting [1], the survivor count is reported as 0 of 6. Take `C1CC[N-]CC1.CC(=O)Nc1[c-]cccc1.CC(=O)O.[Pd+2]`: under setting [5], the T/C was 129 % of control [5 of 6 alive] and the survivor count is 1 of 6. Further, the survivor count under setting [6] is reported as 0 of 6. With `Oc1ccccc1-c1cc(-c2ccccc2)nc(NCCCCCCNc2nc(-c3ccccc3)cc(-c3ccccc3O)n2)n1`, under setting [7], the survivor count is 3 of 6.

Turning to `CCCCCc1cc(/C=C2/N=C(c3ccc[nH]3)C=C2OC)[nH]c1C`, the T/C (dose: 6.0 mg/kg/injection, schedule: Q01DX009 (ip), vehicle: saline) was 125 % of control. For the same compound, the survivor count runs as follows: (dose: 12.0 mg/kg/injection, schedule: Q01DX009 (ip), vehicle: saline) 6 of 6; (dose: 24.0 mg/kg/injection, schedule: Q01DX009 (ip), vehicle: saline) 2 of 6.
